Structures are written as SMILES.

This series in a line: Taste of the salt. As to conditions: in words.
For `CCCCCCCCCCCC[N+](C)(C)Cc1ccccc1.O=C1[N-]S(=O)(=O)c2ccccc21` [[BA][Sac], benzalkonium saccharinate], the Taste entry is listed as “very sweet in taste”.

`CCCCCCCCCC[N+](C)(C)CCCCCCCCCC.O=C1[N-]S(=O)(=O)c2ccccc21` [[DDA][Sac], Didecyldimethylammonium Saccharinate]: the Taste entry is “sweet”.

With `CC1=CC(=O)[N-]S(=O)(=O)O1.CCCCCCCCCCCC[N+](C)(C)Cc1ccccc1` [[BA][Ace], benzalkonium acesulfamate], the Taste result is given as “sweet taste”.

Take `CC1=CC([O-])=NS(=O)(=O)O1.CCCCCCCCCC[N+](C)(C)CCCCCCCCCC` [[DDA][Ace], didecyldimethylammonium acesulfamate]: the Taste result is reported as “sweet”.
